Measured values from PubChem BioAssay AID504834 (National Center for Advancing Translational Sciences (NCATS), 2011).
“And” between values parts separate entries of the source, which are not always exact repeats. Equal entries are not always repeated. Among all 320,000 compounds or so, about 22,000 (6.9%) were called active. Inconclusive results, whose numbers are uncertain, are shown with a selection of clear calls. Calls follow the shape of the dose curve; as a rule, active = well fitted inhibition curve with a large enough effect; inconclusive = small, poorly fitted or top-dose-only effect, or another doubt; inactive = no such curve, though single readings can be large or run the other way. Where the call is inconclusive, the potency comes from a doubtful curve fit.

assay: Primary qHTS for delayed death inhibitors of the malarial parasite plastid, 96 hour incubation; conditions: P. falciparum luciferase reporter growth; series mostly up to 28.7 µM; activity change, negative = inhibition: at the top concentration
Outline: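 P. falciparum expressing integrated firefly luciferase grown in erythrocytes (2% hematocrit, 0.05% parasitemia final) with compounds for 96 hours at 37 C, 5% CO2. Growth inhibition read as loss of luminescence after adding luciferase detection reagent.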
% is scaled to controls: 0 for no effect and ±100 for the full control effect; potency is read from the fitted curve at half-maximal effect.

SMILES	activity change, negative = inhibition	Potency
CCOc1ccc(S(=O)(=O)Nc2cnc3ccccc3c2)cc1	inactive: -23.5%	
CCOc1ccccc1N1CCN(C(=O)c2c(-c3ccccc3Cl)noc2C)CC1	inactive: -8.66%	
Cc1nn(Cc2c(F)c(F)c(F)c(F)c2F)c(C)c1NC(=O)c1c([N+](=O)[O-])c(C)nn1C	inactive: -3.73%	
Cc1ccc(C(=O)Oc2ccc(/C=N/NC(N)=O)cc2)cc1	inactive: 0.511%	
O=C(Cn1cnc(S(=O)(=O)N2CCCCC2)c1)N1CCN(c2ccc([N+](=O)[O-])cc2)CC1		inconclusive: 6.57 µM [inhibitor, partial curve]
CC(/C=N/NC(=O)c1ccc2nc(C)[nH]c2c1)=C\c1ccccc1		inconclusive: 4.15 µM [inhibitor, single point]
O=C1CSC(=O)N1CC(O)COc1ccc(Cl)cc1 (stereo not drawn)	inactive: -3.66%	
O=S(=O)(NCc1ccccc1Br)c1cccs1		inconclusive: 7.38 µM [inhibitor, partial curve]
Cc1cc(NS(=O)(=O)c2ccc(-c3ccccc3)cc2)no1		inconclusive: 3.7 µM [inhibitor, partial curve, poor fit]
c1ccc2cc3[nH]c(CN4CCOCC4)nc3cc2c1		inconclusive: 13.1 µM [inhibitor, partial curve, poor fit]
CCCn1nc(C(=O)NNC(=O)CCCOc2ccc(C)cc2)c2ccccc2c1=O	inactive: -2.53%	
Cc1nn(-c2ccccc2)c(C)c1NC(=O)CCl		active: 3.7 µM
COCCNC(=O)c1c(N)n(CCC2=CCCCC2)c2nc3ccccc3nc12	inactive: -14.9%	
CN1C(=O)/C(=C/c2cc(N=Nc3ccccc3)ccc2O)SC1=S		inconclusive: 2.33 µM [inhibitor, partial curve, poor fit]
COc1cc(C(=O)Nc2ccccc2N2CCOCC2)ccc1OCc1c(C)noc1C		inconclusive: 0.37 µM [inhibitor, full curve, poor fit]
CC(C)C[C@@H](CC#N)N1CCN(Cc2ccccc2)CCC1=O		inconclusive: 1.31 µM [inhibitor, partial curve, poor fit]
CCN1C(=NCC(C)C)N[C@@H](CCc2ccccc2)[C@H](C(=O)NCC(C)C)[C@H]1C		inactive and inconclusive: 14.7 µM [inhibitor, partial curve, poor fit]
Nc1c(Cl)cc(C2=NCCn3c2c2ccc(C(F)(F)F)cc2[n+]3[O-])cc1Cl		inconclusive: 18.5 µM [inhibitor, single point]
COc1ccc(-c2cc(-c3ccccc3)nc(SCC(=O)Nc3nccs3)c2C#N)cc1		inconclusive: 18.5 µM [inhibitor, single point]
Clc1ccc(-c2c[n+]3c(n2-c2ccccc2)SCC3)cc1		active: 0.165 µM
CCCNS(=O)(=O)c1ccc(CCC(=O)N2CCN(c3ccc(OC)cc3)CC2)cc1		inconclusive: 8.28 µM [inhibitor, partial curve, poor fit]
Cc1ccccc1CNC(=O)C(=O)NCC1OCCCN1S(=O)(=O)c1cccs1 (stereo not drawn)		inconclusive: 18.5 µM [inhibitor, single point]
Cc1ccc(N2C(=O)NC(=O)C(CCc3ccccn3)(Cc3ccc(F)cc3)C2=O)cc1 (stereo not drawn)		inconclusive: 18.5 µM [inhibitor, partial curve, poor fit]

SMILES	activity change, negative = inhibition	Potency
NC(=O)CSc1nnc(-c2ccncc2)n1CCc1ccccc1		inconclusive: 11.7 µM [inhibitor, partial curve, poor fit]
O=Cc1ccc(-c2nc3ccccc3s2)o1	inactive: 41.3%	
Cc1ccc2[nH]c3c(c2c1)CCCC3NCCO (stereo not drawn)		inconclusive: 11.7 µM [inhibitor, partial curve]
Cc1ccc(-n2c(N)c(Br)c(=O)[nH]c2=O)cc1C		inconclusive: 7.38 µM [inhibitor, partial curve, poor fit]
O=C(CSc1nc2scc(-c3ccccc3)c2c(=O)[nH]1)Nc1ccccc1		inconclusive: 4.65 µM [inhibitor, partial curve, poor fit]
Cc1ccc(-c2onc(C)c2C)cc1S(=O)(=O)N1CC(C)Oc2ccccc21 (stereo not drawn)	inactive: -29.1%	
Cc1csc(N(C)C(=O)CSc2nnc(COc3cccc4ccccc34)o2)n1		inconclusive: 5.22 µM [inhibitor, partial curve, poor fit]
Cc1nonc1C1CCCN1Cc1cn[nH]c1-c1ccc2c(c1)OCO2 (stereo not drawn)		inconclusive: 18.5 µM [inhibitor, single point]
O=C(NC1CCCC1)C(c1cccnc1)N(C(=O)c1csnn1)c1ccccc1Cl (stereo not drawn)	inactive: -2.57%	
CCOc1ccc(N2C(=O)c3cccnc3C2=O)cc1		active: 1.85 µM
CC(C)OCCCn1c(=O)c2ccccc2n2c(CCC(=O)NCc3ccccn3)nnc12		inconclusive: 18.5 µM [inhibitor, single point]
CCOC(=O)C1(Cc2cccc(OC)c2)CCN(Cc2ccon2)CC1	inactive: 24.2%	
O=C(Nc1ccc(N2CCCCCC2)cc1)c1ccccc1Cl		inconclusive: 4.65 µM [inhibitor, partial curve, poor fit]
Cc1cc2oc(C(=O)N(Cc3ccccc3)C3CCS(=O)(=O)C3)c(C)c2cc1C (stereo not drawn)		inconclusive: 14.7 µM [inhibitor, partial curve, poor fit]
O=C(NC1CCCC1)C(c1ccc(F)cc1)N(Cc1ccc(Cl)cc1)C(=O)CCl (stereo not drawn)		inconclusive: 3.29 µM [inhibitor, single point]
CCOC(=O)Nc1ccc2c(CNC(C)c3ccccc3OC)cc(=O)oc2c1 (stereo not drawn)	inactive: -52.1%	
Cc1ccc(NC(=O)C2CCCN(S(=O)(=O)c3cnc[nH]3)C2)c(Br)c1 (stereo not drawn)	inactive: 21.6%	
COc1ccccc1CN1CCN(C(=O)c2ccncc2)CC1		inconclusive: 18.5 µM [inhibitor, single point]
COc1ccc(C2C(C#N)=C3NC(=O)c4c(sc5c4CCCCC5)N3C3=C2C(=O)CC(C)(C)C3)cc1 (stereo not drawn)		inconclusive: 0.0586 µM [inhibitor, full curve, poor fit]
COc1ccc(OC)c(Nc2nnc(C)c(=O)[nH]2)c1		inconclusive: 16.5 µM [inhibitor, single point]
CC(=O)Nc1ccc(S(=O)(=O)NCCN2CCNC2=O)cc1Cl		active: 7.38 µM
Cc1oc(-c2ccccc2Cl)nc1CS(=O)(=O)CC(=O)NC1CCCC1		inconclusive: 18.5 µM [inhibitor, single point]
CC(C)(OC(=O)c1ccc(F)cc1)c1cc2ccccc2c(=O)o1	inactive: 35.3%	

Given in CSV form: entries from further up
SMILES,"activity change, negative = inhibition",Potency
Cc1ccc(NC(=O)C2CCCN(S(=O)(=O)c3cnc[nH]3)C2)c(Br)c1 (stereo not drawn),inactive: 21.6%,
COc1ccccc1CN1CCN(C(=O)c2ccncc2)CC1,,"inconclusive: 18.5 µM [inhibitor, single point]"

(next part)

SMILES	activity change, negative = inhibition	Potency
COc1ccccc1N1CCN(C(=O)C2CCN(S(=O)(=O)c3ccc(Cl)cc3)CC2)CC1		inconclusive: 13.1 µM [inhibitor, partial curve, poor fit]
NC(=O)N/N=C/c1ccccc1OCc1cccc2ccccc12		active: 13.1 µM
Cc1ccccc1-n1c(Cn2c(=O)sc3ccccc32)nnc1SCC(=O)NCC1CCCO1 (stereo not drawn)		inconclusive: 11.7 µM [inhibitor, partial curve, poor fit]
O=C1CC(c2cccc(F)c2)C2=C(CCCC2=O)N1 (stereo not drawn)		active: 9.28 µM
CCN(CC)CCNC(=O)c1cn(-c2ccccc2)nc1-c1cccs1		inconclusive: 16.5 µM [inhibitor, single point]
Cc1nnc2sc(SCc3ccccc3Cl)nn2c1=O		inconclusive: 0.738 µM [inhibitor, full curve, poor fit]
CCCCCc1c(C)nc(Nc2nc(C)c3cc(OC)ccc3n2)[nH]c1=O		inconclusive: 1.31 µM [inhibitor, full curve]
CC(C)OC(=O)c1c(N)n(CCCN2CCOCC2)c2nc3ccccc3nc12		inconclusive: 18.5 µM [inhibitor, single point]
CCNc1nc(NCC)n2c(SCC(=O)Nc3ccc(F)cc3[N+](=O)[O-])nnc2n1		inconclusive: 0.0657 µM [inhibitor, full curve, poor fit]
C=CCN(CC(O)c1cccc([N+](=O)[O-])c1)C(C)CCc1ccccc1 (stereo not drawn)		inconclusive: 1.85 µM [inhibitor, full curve]
CNc1c(N)c(=O)oc2ccccc12		inconclusive: 9.28 µM [inhibitor, single point]
O=C(c1ccco1)[C@@H]1[C@@H]2C(=O)N(c3ccccc3)C(=O)[C@@H]2C2c3ccccc3C=CN21 (stereo partly drawn)		active: 4.65 µM
O=C/C(=C\Nc1ccc(Br)cc1)c1nc2ccccc2o1		inconclusive: 3.7 µM [inhibitor, partial curve, poor fit]
Cn1ncc(Cl)c(Oc2ccc(Cl)cc2)c1=O	inactive: 15.4%	
O=C1Nc2ccc(F)cc2C12Nc1ccccc1-c1nnc(SCc3ccccc3Cl)nc1O2 (stereo not drawn)		inconclusive: 0.828 µM [inhibitor, full curve, poor fit]
O=C(/C=C/c1ccccc1[N+](=O)[O-])OCC(=O)c1ccccc1	inactive: -18.5%	
COC(=O)c1ccc(N2CCN(S(=O)(=O)c3ccc(C)cc3)CC2)c([N+](=O)[O-])c1		inconclusive: 5.22 µM [inhibitor, partial curve, poor fit]
O=C(N=Nc1ccc(NOC(=O)c2ccccc2Br)cc1)c1ccccc1O	inactive: 169%	
Cc1ccc(CSc2nc3c(c(N(C)C)n2)CCCC3)cc1		inconclusive: 18.5 µM [inhibitor, single point]
O=C(Nc1ccc(O)c2c(=O)cc(-c3ccccc3Cl)oc12)c1ccc(Cl)c(Cl)c1		inconclusive: 10.4 µM [inhibitor, single point]
COc1ccc(NC(=O)N2CCN(S(C)(=O)=O)CC2)c(OC)c1	inactive: -1.76%	
CCC(C)c1ccc(NC(=S)N2CCN(S(C)(=O)=O)CC2)cc1 (stereo not drawn)	inactive: -27.3%	

An excerpt from above in order of SMILES length, largest number first:
SMILES	activity change, negative = inhibition	Potency
O=C(c1ccco1)[C@@H]1[C@@H]2C(=O)N(c3ccccc3)C(=O)[C@@H]2C2c3ccccc3C=CN21 (stereo partly drawn)		active: 4.65 µM
COC(=O)c1ccc(N2CCN(S(=O)(=O)c3ccc(C)cc3)CC2)c([N+](=O)[O-])c1		inconclusive: 5.22 µM [inhibitor, partial curve, poor fit]
O=C(Nc1ccc(O)c2c(=O)cc(-c3ccccc3Cl)oc12)c1ccc(Cl)c(Cl)c1		inconclusive: 10.4 µM [inhibitor, single point]
CCNc1nc(NCC)n2c(SCC(=O)Nc3ccc(F)cc3[N+](=O)[O-])nnc2n1		inconclusive: 0.0657 µM [inhibitor, full curve, poor fit]
Cc1ccccc1-n1c(Cn2c(=O)sc3ccccc32)nnc1SCC(=O)NCC1CCCO1 (stereo not drawn)		inconclusive: 11.7 µM [inhibitor, partial curve, poor fit]
C=CCN(CC(O)c1cccc([N+](=O)[O-])c1)C(C)CCc1ccccc1 (stereo not drawn)		inconclusive: 1.85 µM [inhibitor, full curve]
CC(C)OC(=O)c1c(N)n(CCCN2CCOCC2)c2nc3ccccc3nc12		inconclusive: 18.5 µM [inhibitor, single point]
Cc1oc(-c2ccccc2Cl)nc1CS(=O)(=O)CC(=O)NC1CCCC1		inconclusive: 18.5 µM [inhibitor, single point]
O=C(N=Nc1ccc(NOC(=O)c2ccccc2Br)cc1)c1ccccc1O	inactive: 169%	
CC(C)(OC(=O)c1ccc(F)cc1)c1cc2ccccc2c(=O)o1	inactive: 35.3%	
CCN(CC)CCNC(=O)c1cn(-c2ccccc2)nc1-c1cccs1		inconclusive: 16.5 µM [inhibitor, single point]
Cc1ccc(CSc2nc3c(c(N(C)C)n2)CCCC3)cc1		inconclusive: 18.5 µM [inhibitor, single point]
O=C1CC(c2cccc(F)c2)C2=C(CCCC2=O)N1 (stereo not drawn)		active: 9.28 µM
Cc1nnc2sc(SCc3ccccc3Cl)nn2c1=O		inconclusive: 0.738 µM [inhibitor, full curve, poor fit]
CNc1c(N)c(=O)oc2ccccc12		inconclusive: 9.28 µM [inhibitor, single point]
